{"sequences": {"note": "By UniProt entry, the sequences of proteins in these tests, tags left out.", "UniProt Q04725": "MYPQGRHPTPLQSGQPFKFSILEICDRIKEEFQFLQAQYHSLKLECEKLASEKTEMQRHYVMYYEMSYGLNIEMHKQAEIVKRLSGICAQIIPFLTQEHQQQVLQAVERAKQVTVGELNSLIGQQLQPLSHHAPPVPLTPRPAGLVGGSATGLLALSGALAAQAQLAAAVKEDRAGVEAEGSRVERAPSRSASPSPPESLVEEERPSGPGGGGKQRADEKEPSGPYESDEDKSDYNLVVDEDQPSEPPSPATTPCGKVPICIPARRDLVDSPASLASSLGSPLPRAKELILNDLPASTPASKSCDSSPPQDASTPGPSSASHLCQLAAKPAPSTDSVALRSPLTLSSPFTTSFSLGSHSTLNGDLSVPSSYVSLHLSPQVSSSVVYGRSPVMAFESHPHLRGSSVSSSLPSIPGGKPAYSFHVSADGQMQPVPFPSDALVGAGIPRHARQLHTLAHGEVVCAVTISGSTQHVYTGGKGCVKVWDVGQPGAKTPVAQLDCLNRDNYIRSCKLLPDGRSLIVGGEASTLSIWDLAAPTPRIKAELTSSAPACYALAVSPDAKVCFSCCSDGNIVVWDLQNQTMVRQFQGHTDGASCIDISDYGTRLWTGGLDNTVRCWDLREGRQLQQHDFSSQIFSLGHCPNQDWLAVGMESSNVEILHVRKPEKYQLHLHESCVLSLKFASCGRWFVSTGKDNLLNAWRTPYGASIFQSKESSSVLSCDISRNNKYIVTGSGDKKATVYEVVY", "UniProt Q9UJU2": "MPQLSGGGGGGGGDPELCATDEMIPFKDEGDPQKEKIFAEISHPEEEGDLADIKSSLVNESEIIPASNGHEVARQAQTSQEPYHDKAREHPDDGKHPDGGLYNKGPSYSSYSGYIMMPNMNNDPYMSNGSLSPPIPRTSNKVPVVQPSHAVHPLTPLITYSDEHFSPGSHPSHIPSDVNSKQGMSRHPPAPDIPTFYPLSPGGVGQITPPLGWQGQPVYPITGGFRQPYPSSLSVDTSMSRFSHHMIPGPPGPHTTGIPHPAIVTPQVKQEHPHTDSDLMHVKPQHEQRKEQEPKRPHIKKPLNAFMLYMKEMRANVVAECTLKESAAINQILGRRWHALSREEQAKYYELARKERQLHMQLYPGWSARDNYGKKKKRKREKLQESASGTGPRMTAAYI"}, "source": "paper PMC5070770", "target": "Transducin-like enhancer protein 2 (TLE2), SF-tagged (UniProt Q04725)", "test": "co-IP", "note": "These are yes or no findings as the source states them, for the method shown. In cells and extracts the contact can be indirect. Some entries that bind do so weakly or less than the wild type.", "data": [{"substance": "Lymphoid enhancer-binding factor 1 (LEF1), HA-tagged (from UniProt Q9UJU2 1-399)", "values": [{"measurement": "binding", "result": "binds"}]}]}
